Results as given in the supplement of paper PMC3334620.
Over roughly 33,000 sequences, “E-score (-0.5 to 0.5)” has its median near -0.0034; the highest 2% begin near 0.25. The list shows a part of the results.

Biological target: T1, Yap3 (UniProt P38749)
T1 sequence: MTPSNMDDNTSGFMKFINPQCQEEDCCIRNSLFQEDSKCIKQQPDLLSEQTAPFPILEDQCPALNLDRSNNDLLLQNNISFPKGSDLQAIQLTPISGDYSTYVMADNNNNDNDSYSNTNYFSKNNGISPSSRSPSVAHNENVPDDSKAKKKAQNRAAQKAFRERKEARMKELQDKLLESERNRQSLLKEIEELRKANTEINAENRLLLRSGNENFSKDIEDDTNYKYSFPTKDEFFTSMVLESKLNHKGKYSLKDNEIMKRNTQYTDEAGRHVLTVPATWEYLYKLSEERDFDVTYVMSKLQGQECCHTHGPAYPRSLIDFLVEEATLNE
Assay: PBM E-score (8-mer binding enrichment) (E-score (-0.5 to 0.5)); higher = stronger / more preferred TF binding
Conditions: protein concentration: 100 nM; construct: GST-full length
Procedure, shortened: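 Detection of bound protein used fluorescent anti-GST, with scans normalised by masliner. The proteins were GST-tagged yeast transcription factors applied at about 100-200 nM to universal all-10-mer Agilent arrays made double-stranded by primer extension. Each ungapped eight-base word, pooled with its reverse complement, was scored with an E-score from the Universal PBM Analysis Suite.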

| Sequence | PBM E-score |
| --- | --- |
| GCCAACGC | -0.102 |
| AAACAGGA | 0.0526 |
| CGGGTTGC | -0.0878 |
| AAGTCTGT | -0.0052 |
| CTACCGTA | -0.00491 |
| ACCGTTTC | 0.0583 |
| GACCGCCC | -0.104 |
| ATACGAAG | 0.0197 |
| AAATAAAC | 0.178 |
| CCGACAGC | -0.213 |
| GGACGGCA | -0.109 |
| CGGATCGC | 0.0225 |
| GTGTGACA | -0.0405 |
| AATGCGCC | -0.0638 |
| GGAAGGCA | -0.0591 |
| CCATTTTA | 0.222 |
| CGTGGCCA | -0.162 |
| ATAGTAGC | 0.104 |
| AACTTTCT | 0.153 |
| ATTTCTCC | 0.00784 |
| AAGGTGCC | -0.205 |
| GTCCGCGA | 0.00456 |

| Sequence | PBM E-score |
| --- | --- |
| ATCGCCGC | 0.00595 |
| CGACCACG | 0.0614 |
| CTGCAGCC | 0.0213 |
| GTTGATAA | 0.197 |
| GGCCTCCA | -0.167 |
| ACGGCTTC | -0.0647 |
| GAGAATGA | 0.237 |
| ACTTGCCG | 0.00918 |
| ATCGAGTG | 0.119 |
| GGAGCACC | -0.296 |
| AAGCTGAA | -0.022 |
| AGGTTTCG | -0.113 |
| ATCAGGAC | -0.0718 |
| AGTATGGC | -0.107 |
| CTGACAAC | 0.00875 |
| CCGCACTA | 0.0825 |
| CTTCCTAA | -0.011 |
| CCGAACCC | -0.302 |
| CGTGGGAG | -0.272 |
| ACCCCCAT | -0.246 |
| ATATGTCC | 0.0229 |
| CCCTCTCA | -0.319 |

| Sequence | PBM E-score |
| --- | --- |
| ACTCGAAG | -0.194 |
| CCCCAAAC | -0.0962 |
| CCCGAGTA | 0.0576 |
| TAATCCAA | 0.24 |
| CTTGATAA | 0.174 |
| GTCAGCAC | -0.0445 |
| ACTCTGTC | -0.0261 |
| ATACTTTC | 0.183 |
| GCCACGAA | -0.226 |
| AAAACAGA | 0.172 |
| CGCTCGCA | -0.00822 |
| ATCACAGA | -0.00218 |
| AGGCAAAA | 0.252 |
| AATTACGC | 0.208 |
| CTGACGGC | -0.281 |
| GGAACTAA | 0.017 |
| AGCCAGAT | -0.0507 |
| GGGCGTGA | -0.0331 |
| CCGAAGAG | -0.0892 |
| GCCGCTTA | 0.0109 |
| AACGGACC | -0.0565 |
| ACCGAGAG | 0.00673 |

Four entries drawn at random from those above:

| Sequence | PBM E-score |
| --- | --- |
| ATCGAGTG | 0.119 |
| ACCGTTTC | 0.0583 |
| GGCCTCCA | -0.167 |
| AAAACAGA | 0.172 |

Carrying on.

| Sequence | PBM E-score |
| --- | --- |
| CCAATGAG | -0.0674 |
| AGCTGTCG | -0.197 |
| ACAAGTTC | 0.142 |
| GTCGACAA | -0.0197 |
| TATACAAA | 0.165 |
| CTAGGCGA | -0.0625 |
| GACTTTAC | 0.107 |
| ATTGTTCA | 0.159 |
| AGAAGGAA | -0.126 |
| AGATAGCA | 0.0137 |
| ACGTGTTA | 0.204 |
| AGCGTTAA | 0.0628 |
| ACGGGAAC | -0.0418 |
| CGATAGTA | 0.0352 |
| AGGCCACG | -0.0601 |
| TAGCGCGA | 0.115 |
| CGATTGAA | -0.0897 |
| CTACATGA | -0.149 |
| CTGTTTGC | 0.0947 |
| ACGCACCA | -0.101 |
